Experimental data: paper PMC12040169 (PLOS Biology, 2025)
The list shows a part of the results.

tested on: T1, CTL2-GFP (C. trachomatis L2/434/Bu, GFP-expressing); design: species or system HeLa; Intracellular C. trachomatis growth in HeLa cells, bulk GFP fluorescence relative to DMSO; details: bulk GFP, single well; 28.5 h, 10 µM; inhibitor
T1 construct: L2/434/Bu, GFP-expressing

Structure (SMILES)	% of control remaining [%]
COc1ccc(C(C)C)cc1-c1cn2ccnc2c(N(C)CCN(C)C)n1 [CBK066368]	202.982
O=C(O)c1cccc(-c2ccc(/C=C\c3nc(O)c([N+](=O)[O-])c(=O)[nH]3)o2)c1 [CBK267209]	84.138
Cc1cccc([C@@H]2CN(Cc3ccccc3)C[C@]23CCCCC(=O)N3)n1 [CBK283341]	133.465
O=C(O)CCn1cc(CN2CCOc3ccccc3C2)cn1 [CBK306507]	145.513
Cc1onc(-c2ccccc2)c1C(=O)Nc1ccccc1N1CCCNCC1 [CBK038929T]	133.816
COc1ccc(C2c3cc(OC)c(OC)cc3CC(=O)N2c2ccc(C(=O)O)cc2)cc1OC (stereo not shown) [CBK296082]	145.541
c1ccc2c(c1)nnn2Cc1nnc2sc(-c3cnccn3)nn12 [CBK268393]	139.432
COc1ccc(S(=O)(=O)N2CCC(C(=O)Nc3ccccc3SC)CC2)cc1C [CBK267960]	114.175
CC(=O)c1cccc(-c2ccc3c(c2)C(=O)NC2(CCN(C(=O)OC(C)(C)C)CC2)O3)c1 [CBK131969]	96.305
CN1CCN(c2ccc(/C=c3\sc4nc5ccccc5n4c3=O)cc2[N+](=O)[O-])CC1 [CBK263048]	103.487
N#Cc1ccc(Oc2ccc3c(c2)-c2cc(Oc4ccc(C#N)c(C#N)c4)ccc2S3(=O)=O)cc1C#N [CBK261151]	107.169
CCC(=O)OC1(C(=O)c2ccc(F)cc2)CCN(CCCC(c2ccc(F)cc2)c2ccc(F)cc2)CC1 [CBK025227C]	101.367
O=C1c2ccccc2CN1c1nccs1 [CBK113184]	114.464
c1ncc(OC2CCNC2)nc1OCCN1CCOCC1 (stereo not shown) [CBK077311T]	162.992
O=S(=O)(Nc1cccc2[nH]ccc12)c1ccc(F)cc1F [CBK153546]	126.434
COC(=O)c1cc(Cl)c2ccccc2n1 [CBK012428]	121.357
CC(C)CNCC1CC(C(=O)N2CCC(Cc3ccccc3)CC2)=NO1 (stereo not shown) [CBK003718C]	141.514
Cc1cc(NC(=O)c2ccc(S(=O)(=O)N3CCOCC3)cc2)nc2c1c(=O)oc1ccccc12 [CBK291134]	103.735
O=C(Nc1ccccc1C(=O)O)c1cc(S(=O)(=O)Nc2cccc([N+](=O)[O-])c2)ccc1Cl [CBK263234]	118.948
CCOC(=O)C1CCCN(c2c(C#N)cnc3ccc(Cl)cc23)C1 (stereo not shown) [CBK304405]	146.367
O=C(NC(Sc1ncccn1)C(=O)c1ccccc1)c1ccccc1 (stereo not shown) [CBK025806]	112.622
N#C/C(=C\c1ccc2noc(-c3ccccc3)c2c1)c1nc(-c2cc3ccccc3oc2=O)cs1 [CBK267269]	138.877
COc1cc2c(cc1OC)C1(CCN(CCCC(F)(F)F)CC1)NC(=O)C2 [CBK039859]	84.3387
CC(=O)Nc1cccc(NC(=O)N2CCN(Cc3ccccc3)CC2)c1 [CBK155643]	86.1476
CCCCn1c(SCc2nc(-c3ccncc3)no2)nc2ccsc2c1=O [CBK288576]	108.513
Cc1cc(C(=O)C(C)Sc2nnc(N)s2)c(C)n1-c1ccccc1 (stereo not shown) [CBK297916]	158.898

Structure (SMILES)	% of control remaining [%]
CS(=O)(=O)CCOCCNC(=O)c1cc(Br)cnc1Cl [CBK305178]	131.525
COc1ccc(-c2cn(-c3ccc(OC)c(OC)c3)nn2)cc1 [CBK113001]	107.24
CCn1c(COc2cccc(C)c2)nnc1SCC(=O)c1ccccc1 [CBK267143]	123.182
CC1(C)CC(=O)C=C(C(=O)Nc2cncc(OC3CCNCC3)n2)O1 [CBK038922T]	112.951
CC(NC(=O)N1CCSCC1)c1cccc(Br)c1 (stereo not shown) [CBK306475]	136.512
Cc1ccc(NC(=O)CN2C(=O)c3ccccc3C2=O)c(O)c1 [CBK270028]	148.182
CC(C)(CO)CNc1nc(-c2cc(C(F)(F)F)cc(C(F)(F)F)c2)cnc1N [CBK063490]	133.874
CCN1CC2(CCC1=O)CCN(Cc1nnc(-c3cccnc3)o1)CC2 [CBK307137]	139.499
Cc1c(F)cccc1CNC1CCC(NC(=O)OC(C)(C)C)CC1 (stereo not shown) [CBK056691]	153.02
Cc1ccc(OC(=O)c2cc(Cl)cnc2Cl)cc1 [CBK090321]	136.593
O=C(c1n[nH]cc1Cl)N1CCCC(c2cc3ccccc3cn2)C1 (stereo not shown) [CBK285062]	136.513
Nc1nnc2c(C(F)(F)F)nc3ccccc3n12 [CBK021345]	163.537
CC1Cc2cc(C(=O)C3=C(O)C(=O)N(Cc4ccco4)C3c3cccnc3)ccc2O1 (stereo not shown) [CBK266236]	144.403
O=C(CS(=O)(=O)Cc1ccccc1)Nc1ccc(S(=O)(=O)N2CCCCCC2)cc1 [CBK266653]	142.342
Cc1ccc(OCc2ccccc2)c(C(CCN(C(C)C)C(C)C)c2ccccc2)c1 (stereo not shown) [CBK017906]	36.3093
COc1c(C)cc(-c2ncnc(C)c2C)cc1C [CBK306884]	166.685
O=C(CSc1nc(Nc2ccccc2)nc(N2CCOCC2)n1)N1CCN(c2ccccc2)CC1 [CBK269078]	146.488
Cc1ccc(S(=O)(=O)NC(=O)NCCCCNC(=O)NS(=O)(=O)c2ccc(C)cc2)cc1 [CBK296078]	140.036
CCCc1[nH]nc(O)c1Cc1ccc(C(F)(F)F)cc1 [CBK075014]	91.5218
CCCc1[nH]nc(O)c1C(=O)c1c(F)cccc1Cl [CBK103524]	76.8773
C=CCN1C(=O)C2(CC(=O)N(C)C2=O)c2ccccc21 (stereo not shown) [CBK075137]	89.0062
CC(C)(C)OC(=O)N1CCC2(CC1)NC(=O)c1cc(-c3cccc4ncccc34)ccc1O2 [CBK083674]	102.96
CCNC(=O)NC(=O)C1CCN(CCc2ccc(O)c(OC)c2)CC1 [CBK035184]	110.179
O=C(Nc1nnc(-c2ccccc2)o1)c1ccc2ncsc2c1 [CBK287598]	153.85
COc1ccc(-c2cccc(CC3(C(=O)NCc4cccs4)CCOCC3)c2)cc1 [CBK286514]	97.5121
O=C(CCCc1nc(-c2ccccc2Cl)no1)NCc1cccnc1 [CBK269516]	119.248

Structure (SMILES)	% of control remaining [%]
CC(C)(C)NC(=O)Cn1nc(-c2cc3c(s2)CCC3)oc1=O [CBK284714]	88.7323
O=C(Nc1cccc(-c2nc3ncccc3o2)c1)c1ccc(Cl)c([N+](=O)[O-])c1 [CBK262845]	100
CC1(C)Cc2nc(N3CCOCC3)ncc2C(NC(=O)c2cn[nH]c2)C1 (stereo not shown) [CBK307409]	106.901
CC(C)(C)c1ccc(-c2cc3ncccc3nc2O)cc1 [CBK081302]	128.318
N#CCCN(CCN1CCCC1)S(=O)(=O)c1cccc2nsnc12 [CBK261141]	116.989
COC(=O)CNC(c1ccccc1)c1cc(Br)ccc1NC(C)=O (stereo not shown) [CBK262976]	73.1285
COc1ccc(-c2ccc(OCCNC(=O)c3cccc(F)c3)nn2)cc1 [CBK294428]	121.017
COc1ccc(NC(=O)C2CCCN2S(=O)(=O)c2ccc(OC)cc2)cc1 (stereo not shown) [CBK070001]	100
O=C(CCc1cccnc1)N1CCCc2ccccc21 [CBK200344]	127.112
COc1ccc2c(c1)C1(CC(=O)N(CCc3scnc3C)C1=O)C(=O)N2Cc1ccccc1 (stereo not shown) [CBK075240]	109.02
N#Cc1ccccc1CSCCNC(=O)c1ccc(NC(=O)c2ccco2)s1 [CBK296749]	129.67
CC(C)c1ccc(CNC(=O)C2(c3ccccc3)CCCC2)cc1 [CBK161531]	94.2608
CCc1onc(C)c1NC(=O)NC1CC2(CCCC2)Oc2ccccc21 (stereo not shown) [CBK305890]	102.669
COc1ccc(C)cc1S(=O)(=O)N(CC(=O)N1CCN(C)CC1)c1cccc(C(F)(F)F)c1 [CBK269355]	83.3099
CC(C)(C)c1cn(C[C@H]2CC3CCN2C[C@@H]3C(=O)Nc2nccs2)nn1 (stereo partly shown) [CBK288737]	125.62
CC(OCc1ccccc1)C(=O)NCC1(N2CCOCC2)CCSC1 (stereo not shown) [CBK305678]	95.0877
O=C(Nc1ccc(F)cc1)c1ccsc1NS(=O)(=O)Cc1ccccc1 [CBK042303]	100
CCN(CC(=O)NCc1ccc(Cl)cc1)S(=O)(=O)c1ccc(OC)cc1 [CBK305836]	157.295
CN1CCN([C@H]2[C@@H]3OC[C@@H](O3)[C@@H](NCc3ccc(N(C)C)cc3)[C@@H]2O)CC1 [CBK288824]	122.835
O=C(NCc1cccc2ccccc12)C1(c2ccccc2)CCCC1 [CBK149534]	110.578
O=C(COc1ccc2ccccc2c1)NCCN1CCOCC1 [CBK265444]	128.884
NC(=S)c1c(Cl)cc(C(F)(F)F)cc1Cl [CBK011349]	103.105
COc1ccc([C@@]23CC[C@@H](NC(=O)Nc4cc(F)c(C#N)cc4F)C[C@@H]2N(C)CC3)cc1OC [CBK073979T]	142.933
COc1ccc(C[C@@H]2NC(=O)[C@H]3CN(C(=O)c4cccc(F)c4)CCN3C2=O)cc1 [CBK289604]	130.336
